Source: the supplement of paper PMC6411743
± gives the standard deviation of the averaged measurements. This is a selection; strong and weak results do not stand in their true shares.

By UniProt entry, the sequences of proteins in these tests, tags left out. Where a name states a change or a piece, a line headed by the entry shows the natural chain unless it says otherwise.
UniProt Q9C0F1: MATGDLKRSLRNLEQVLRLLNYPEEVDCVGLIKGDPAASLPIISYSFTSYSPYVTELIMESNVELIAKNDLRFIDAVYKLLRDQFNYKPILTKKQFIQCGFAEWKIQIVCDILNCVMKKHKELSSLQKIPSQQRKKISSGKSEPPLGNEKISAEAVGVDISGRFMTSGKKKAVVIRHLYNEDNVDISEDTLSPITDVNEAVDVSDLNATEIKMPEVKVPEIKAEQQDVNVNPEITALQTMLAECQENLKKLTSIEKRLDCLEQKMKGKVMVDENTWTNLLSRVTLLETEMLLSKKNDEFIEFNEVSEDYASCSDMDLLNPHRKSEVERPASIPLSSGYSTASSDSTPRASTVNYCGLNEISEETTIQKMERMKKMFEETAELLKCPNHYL
UniProt Q9HBL8: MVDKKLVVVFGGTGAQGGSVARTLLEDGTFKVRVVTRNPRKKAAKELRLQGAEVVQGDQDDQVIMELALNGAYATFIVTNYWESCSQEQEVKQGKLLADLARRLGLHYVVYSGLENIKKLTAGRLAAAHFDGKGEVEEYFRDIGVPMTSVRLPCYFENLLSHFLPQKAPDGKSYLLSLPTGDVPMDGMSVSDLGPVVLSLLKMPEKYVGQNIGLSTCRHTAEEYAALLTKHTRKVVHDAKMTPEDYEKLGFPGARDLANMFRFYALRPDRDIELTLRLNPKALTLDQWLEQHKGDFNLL
UniProt Q9H098: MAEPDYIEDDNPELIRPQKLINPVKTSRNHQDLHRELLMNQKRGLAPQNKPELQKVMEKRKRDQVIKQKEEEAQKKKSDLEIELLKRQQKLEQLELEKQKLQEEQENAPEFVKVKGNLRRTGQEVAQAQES
UniProt Q9NP72: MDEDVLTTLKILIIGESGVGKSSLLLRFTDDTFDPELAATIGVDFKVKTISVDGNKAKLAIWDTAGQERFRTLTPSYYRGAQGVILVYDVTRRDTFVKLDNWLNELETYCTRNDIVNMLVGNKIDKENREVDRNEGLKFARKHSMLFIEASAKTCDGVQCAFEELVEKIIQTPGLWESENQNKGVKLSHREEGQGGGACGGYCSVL
UniProt Q9GZT9: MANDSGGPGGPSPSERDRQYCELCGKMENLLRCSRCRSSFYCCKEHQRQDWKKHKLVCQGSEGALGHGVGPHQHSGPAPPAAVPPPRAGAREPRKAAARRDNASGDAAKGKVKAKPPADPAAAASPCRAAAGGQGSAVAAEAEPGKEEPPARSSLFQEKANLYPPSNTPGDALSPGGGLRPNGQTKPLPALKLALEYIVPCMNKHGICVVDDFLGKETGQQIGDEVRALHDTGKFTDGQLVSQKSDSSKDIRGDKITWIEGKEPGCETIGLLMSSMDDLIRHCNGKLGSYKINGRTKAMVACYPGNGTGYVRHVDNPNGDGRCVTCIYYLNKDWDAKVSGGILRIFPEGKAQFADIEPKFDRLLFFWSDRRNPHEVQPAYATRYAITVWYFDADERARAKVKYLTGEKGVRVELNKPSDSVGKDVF
UniProt Q9H4L5: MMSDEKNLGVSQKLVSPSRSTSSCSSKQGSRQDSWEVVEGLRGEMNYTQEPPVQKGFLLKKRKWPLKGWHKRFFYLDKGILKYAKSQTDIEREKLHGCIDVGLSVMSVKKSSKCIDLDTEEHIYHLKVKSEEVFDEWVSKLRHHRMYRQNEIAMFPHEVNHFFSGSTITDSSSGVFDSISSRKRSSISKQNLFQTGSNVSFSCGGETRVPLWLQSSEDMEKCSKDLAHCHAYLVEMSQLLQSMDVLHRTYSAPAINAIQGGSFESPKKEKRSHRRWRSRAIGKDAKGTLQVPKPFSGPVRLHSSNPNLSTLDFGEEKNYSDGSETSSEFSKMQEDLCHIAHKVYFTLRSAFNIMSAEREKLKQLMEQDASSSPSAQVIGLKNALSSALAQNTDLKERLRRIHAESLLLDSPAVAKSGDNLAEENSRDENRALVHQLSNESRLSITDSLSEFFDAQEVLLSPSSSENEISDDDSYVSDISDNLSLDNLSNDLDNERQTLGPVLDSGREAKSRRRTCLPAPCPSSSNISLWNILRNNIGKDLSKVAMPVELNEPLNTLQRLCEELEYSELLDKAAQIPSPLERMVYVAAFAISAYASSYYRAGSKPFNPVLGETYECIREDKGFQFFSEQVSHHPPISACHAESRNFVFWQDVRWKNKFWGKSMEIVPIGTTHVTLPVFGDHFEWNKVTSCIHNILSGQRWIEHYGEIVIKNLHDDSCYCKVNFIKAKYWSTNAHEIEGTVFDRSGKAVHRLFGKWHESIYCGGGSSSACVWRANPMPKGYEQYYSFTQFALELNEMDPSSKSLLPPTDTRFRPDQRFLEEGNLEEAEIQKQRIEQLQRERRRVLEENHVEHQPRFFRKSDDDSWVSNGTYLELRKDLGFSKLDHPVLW
UniProt Q9HD42: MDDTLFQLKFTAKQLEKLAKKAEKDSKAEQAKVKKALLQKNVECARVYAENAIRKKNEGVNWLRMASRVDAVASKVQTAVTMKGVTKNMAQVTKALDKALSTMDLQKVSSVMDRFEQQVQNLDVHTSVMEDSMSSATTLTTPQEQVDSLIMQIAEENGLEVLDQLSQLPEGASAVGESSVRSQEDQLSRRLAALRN
UniProt Q9H074: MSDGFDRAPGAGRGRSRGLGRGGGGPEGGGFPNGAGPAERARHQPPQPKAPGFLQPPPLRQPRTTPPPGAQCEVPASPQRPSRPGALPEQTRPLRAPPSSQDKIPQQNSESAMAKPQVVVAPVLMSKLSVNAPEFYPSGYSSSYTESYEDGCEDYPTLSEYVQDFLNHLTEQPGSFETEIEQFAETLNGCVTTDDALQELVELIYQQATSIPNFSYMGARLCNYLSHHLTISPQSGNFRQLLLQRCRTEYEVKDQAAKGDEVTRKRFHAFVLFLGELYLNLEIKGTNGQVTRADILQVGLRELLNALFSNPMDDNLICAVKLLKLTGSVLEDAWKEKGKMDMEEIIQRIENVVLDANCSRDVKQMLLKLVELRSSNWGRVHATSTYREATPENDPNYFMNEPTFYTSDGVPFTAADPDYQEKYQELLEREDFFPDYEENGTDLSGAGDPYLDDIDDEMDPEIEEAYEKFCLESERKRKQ
UniProt Q9H8G2: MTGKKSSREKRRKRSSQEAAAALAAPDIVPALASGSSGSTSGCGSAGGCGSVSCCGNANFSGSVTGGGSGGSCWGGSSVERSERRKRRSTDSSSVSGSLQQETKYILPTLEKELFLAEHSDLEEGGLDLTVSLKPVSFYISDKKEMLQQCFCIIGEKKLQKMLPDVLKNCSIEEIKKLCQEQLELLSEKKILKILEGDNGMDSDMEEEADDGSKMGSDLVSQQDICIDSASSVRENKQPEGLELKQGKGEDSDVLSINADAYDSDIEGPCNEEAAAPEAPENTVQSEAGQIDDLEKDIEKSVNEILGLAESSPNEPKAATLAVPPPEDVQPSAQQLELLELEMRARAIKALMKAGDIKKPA
UniProt Q9HCE1: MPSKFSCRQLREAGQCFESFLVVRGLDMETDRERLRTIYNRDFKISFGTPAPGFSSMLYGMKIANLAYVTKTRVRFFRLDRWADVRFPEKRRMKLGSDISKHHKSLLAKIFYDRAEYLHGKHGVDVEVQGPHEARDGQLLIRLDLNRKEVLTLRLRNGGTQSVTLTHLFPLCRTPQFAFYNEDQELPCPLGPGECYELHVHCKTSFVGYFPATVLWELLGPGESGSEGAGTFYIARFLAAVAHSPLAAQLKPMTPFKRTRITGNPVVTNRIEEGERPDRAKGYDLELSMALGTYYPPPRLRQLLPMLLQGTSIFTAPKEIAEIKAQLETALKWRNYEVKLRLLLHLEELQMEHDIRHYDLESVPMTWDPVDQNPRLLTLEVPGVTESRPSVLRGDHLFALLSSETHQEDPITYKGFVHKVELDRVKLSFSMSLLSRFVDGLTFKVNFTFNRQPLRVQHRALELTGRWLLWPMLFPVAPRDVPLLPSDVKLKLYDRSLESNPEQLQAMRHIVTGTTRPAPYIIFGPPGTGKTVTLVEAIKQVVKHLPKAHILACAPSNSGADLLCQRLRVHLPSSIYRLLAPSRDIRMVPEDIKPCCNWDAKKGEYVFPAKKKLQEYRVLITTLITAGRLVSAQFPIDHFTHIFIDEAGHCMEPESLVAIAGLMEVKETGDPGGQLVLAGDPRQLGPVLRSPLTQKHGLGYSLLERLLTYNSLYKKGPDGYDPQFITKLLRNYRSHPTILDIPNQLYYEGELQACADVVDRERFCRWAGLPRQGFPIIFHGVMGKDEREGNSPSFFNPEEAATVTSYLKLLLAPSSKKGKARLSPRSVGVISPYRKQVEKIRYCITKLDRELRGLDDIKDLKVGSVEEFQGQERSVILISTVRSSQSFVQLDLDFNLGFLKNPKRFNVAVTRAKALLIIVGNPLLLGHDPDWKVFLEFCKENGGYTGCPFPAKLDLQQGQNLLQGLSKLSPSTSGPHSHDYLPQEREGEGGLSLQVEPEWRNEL
UniProt Q9HBM1: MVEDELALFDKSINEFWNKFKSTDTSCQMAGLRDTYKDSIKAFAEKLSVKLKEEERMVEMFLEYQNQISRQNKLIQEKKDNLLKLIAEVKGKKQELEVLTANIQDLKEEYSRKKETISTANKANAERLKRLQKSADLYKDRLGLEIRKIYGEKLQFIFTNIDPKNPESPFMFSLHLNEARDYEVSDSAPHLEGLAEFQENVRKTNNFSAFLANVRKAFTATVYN
UniProt Q9HCJ0: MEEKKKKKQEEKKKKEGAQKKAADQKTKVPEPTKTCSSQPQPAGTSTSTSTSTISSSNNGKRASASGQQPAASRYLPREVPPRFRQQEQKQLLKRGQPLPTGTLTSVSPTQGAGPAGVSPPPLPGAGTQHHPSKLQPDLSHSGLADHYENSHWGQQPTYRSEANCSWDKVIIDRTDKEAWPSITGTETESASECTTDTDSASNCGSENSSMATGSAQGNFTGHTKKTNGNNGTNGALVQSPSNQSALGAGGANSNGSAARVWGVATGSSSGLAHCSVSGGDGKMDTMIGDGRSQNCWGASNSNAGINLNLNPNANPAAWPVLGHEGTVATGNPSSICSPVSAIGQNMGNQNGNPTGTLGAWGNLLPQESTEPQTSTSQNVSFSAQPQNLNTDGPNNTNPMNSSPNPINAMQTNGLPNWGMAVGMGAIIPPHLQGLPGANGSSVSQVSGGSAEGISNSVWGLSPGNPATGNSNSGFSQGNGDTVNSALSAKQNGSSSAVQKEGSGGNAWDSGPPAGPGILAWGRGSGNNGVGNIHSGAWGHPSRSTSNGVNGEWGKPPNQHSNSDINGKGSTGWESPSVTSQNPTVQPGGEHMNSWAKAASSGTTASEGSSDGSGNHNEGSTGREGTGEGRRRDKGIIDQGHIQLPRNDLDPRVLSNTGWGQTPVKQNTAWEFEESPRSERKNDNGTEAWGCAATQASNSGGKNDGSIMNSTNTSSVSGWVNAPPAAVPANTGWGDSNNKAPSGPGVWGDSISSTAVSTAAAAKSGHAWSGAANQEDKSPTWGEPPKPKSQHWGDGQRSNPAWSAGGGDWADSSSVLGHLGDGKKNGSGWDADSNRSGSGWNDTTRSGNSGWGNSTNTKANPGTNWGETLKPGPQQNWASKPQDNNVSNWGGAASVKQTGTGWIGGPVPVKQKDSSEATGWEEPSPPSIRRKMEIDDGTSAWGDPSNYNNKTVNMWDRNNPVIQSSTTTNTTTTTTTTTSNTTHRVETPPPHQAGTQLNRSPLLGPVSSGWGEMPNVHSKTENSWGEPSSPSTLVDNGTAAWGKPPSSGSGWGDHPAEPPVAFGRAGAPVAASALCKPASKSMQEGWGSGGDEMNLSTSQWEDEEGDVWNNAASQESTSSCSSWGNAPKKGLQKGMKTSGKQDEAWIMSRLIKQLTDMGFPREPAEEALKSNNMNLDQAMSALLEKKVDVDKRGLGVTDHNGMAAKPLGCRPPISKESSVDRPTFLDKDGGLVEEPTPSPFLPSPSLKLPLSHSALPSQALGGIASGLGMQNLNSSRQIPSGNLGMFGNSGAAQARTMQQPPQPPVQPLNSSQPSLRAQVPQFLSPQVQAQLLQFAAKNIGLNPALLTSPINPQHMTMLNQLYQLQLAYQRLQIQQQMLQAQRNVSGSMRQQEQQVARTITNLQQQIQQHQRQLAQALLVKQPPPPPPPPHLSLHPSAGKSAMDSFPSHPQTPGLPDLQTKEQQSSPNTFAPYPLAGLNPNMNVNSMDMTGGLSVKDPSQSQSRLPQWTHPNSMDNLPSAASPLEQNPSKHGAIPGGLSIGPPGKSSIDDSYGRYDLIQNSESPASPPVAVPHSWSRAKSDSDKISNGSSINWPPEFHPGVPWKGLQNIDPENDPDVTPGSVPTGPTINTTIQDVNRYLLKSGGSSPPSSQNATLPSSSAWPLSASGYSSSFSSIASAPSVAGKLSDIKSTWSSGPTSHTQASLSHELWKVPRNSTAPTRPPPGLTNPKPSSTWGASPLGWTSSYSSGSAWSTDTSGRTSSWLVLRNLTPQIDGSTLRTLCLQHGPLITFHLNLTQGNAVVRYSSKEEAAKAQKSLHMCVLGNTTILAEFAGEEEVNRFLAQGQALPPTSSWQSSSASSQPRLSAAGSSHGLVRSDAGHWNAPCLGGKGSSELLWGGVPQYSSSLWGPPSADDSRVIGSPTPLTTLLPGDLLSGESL

Compound: Nc1ncnc2c1ncn2[C@@H]1O[C@H](COP(=O)(O)OP(=O)(O)NP(=O)(O)O)[C@@H](O)[C@H]1O [adenylyl imidodiphosphate]
Experiment: NP40-soluble protein abundance relative to vehicle (solubility fold change) (ratio); higher = more soluble protein in presence of AMP-PNP
Outline: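 In three independent experiments, Jurkat crude lysate made by Dounce homogenisation was treated for 10 min at room temperature and then 3 min at 37 °C with eight concentrations ranging from 0.1 to 10 mM. It was then solubilised with 0.8% NP40 plus benzonase for 60 min at 4 °C and ultracentrifuged. The supernatant was TMT-labelled for LC-MS/MS, and each value is the fold change against the detergent-processed vehicle for the same replicate, using vsn-normalised intensities.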

| Target | NP40-soluble protein abundance (concentration: 1mM) | NP40-soluble protein abundance (concentration: 2mM) | NP40-soluble protein abundance (concentration: 4mM) | NP40-soluble protein abundance (concentration: 6mM) | NP40-soluble protein abundance (concentration: 8mM) | NP40-soluble protein abundance (concentration: 10mM) |
| --- | --- | --- | --- | --- | --- | --- |
| UniProt Q9C0F1 | 1.03 ± 0.012 | 1.03 ± 0.031 | 1.01 ± 0.047 | 0.961 ± 0.041 | 0.948 ± 0.025 | 0.957 ± 0.033 |
| NMRAL1 (UniProt Q9HBL8) | 1.03 ± 0.042 | 1.02 ± 0.047 | 1.01 ± 0.041 | 1.02 ± 0.015 | 1.002 ± 0.01 | 1.01 ± 0.024 |
| UniProt Q9H0A0 and related entries | 1.47 ± 0.19 | 1.5 ± 0.19 | 1.62 ± 0.21 | 1.66 ± 0.17 | 1.79 ± 0.25 | 1.8 ± 0.17 |
| UniProt Q9H098 and related entries | 0.975 ± 0.016 | 0.982 ± 0.096 | 0.942 ± 0.045 | 0.905 ± 0.051 | 0.852 ± 0.0097 | 0.857 ± 0.037 |
| RAB18 (UniProt Q9NP72) | 0.997 ± 0.033 | 0.961 ± 0.06 | 0.977 ± 0.04 | 0.979 ± 0.03 | 0.997 ± 0.046 | 0.947 ± 0.047 |
| VPS37B (UniProt Q9H9H4) | 1.02 ± 0.021 | 1.07 ± 0.086 | 1.04 ± 0.018 | 1.03 ± 0.043 | 1 ± 0.035 | 1.05 ± 0.061 |
| GOLPH3 (UniProt Q9H4A6) | 1.04 ± 0.048 | 1.04 ± 0.038 | 1.03 ± 0.045 | 1.02 ± 0.053 | 1.04 ± 0.054 | 1.02 ± 0.059 |
| EGLN1 (UniProt Q9GZT9) | 1.034 ± 0.0081 | 1.06 ± 0.039 | 1.04 ± 0.031 | 1.01 ± 0.012 | 0.998 ± 0.012 | 1.01 ± 0.043 |
| UniProt Q9H4L5 and related entries | 1.02 ± 0.024 | 1.01 ± 0.041 | 0.9904 ± 0.0097 | 0.9706 ± 0.0096 | 0.96 ± 0.028 | 0.953 ± 0.016 |
| CHMP1A (UniProt Q9HD42) | 0.988 ± 0.051 | 1.07 ± 0.12 | 1.01 ± 0.068 | 1.02 ± 0.092 | 1.03 ± 0.051 | 1.03 ± 0.093 |
| FTO (UniProt Q9C0B1) | 0.98 ± 0.02 | 0.942 ± 0.043 | 0.9778 ± 0.0041 | 0.955 ± 0.018 | 0.9727 ± 0.0014 | 0.936 ± 0.016 |
| UniProt Q9BZQ6-2 | 1.01 ± 0.051 | 0.995 ± 0.045 | 0.978 ± 0.049 | 0.9891 ± 0.0052 | 0.9728 ± 0.007 | 0.963 ± 0.016 |
| UniProt Q9H6K5 and related entries | 1.02 ± 0.064 | 1.09 ± 0.15 | 1.05 ± 0.047 | 1.02 ± 0.029 | 0.994 ± 0.03 | 1 ± 0.014 |
| UniProt Q9H0P0 and related entries | 1 ± 0.016 | 0.989 ± 0.054 | 1.01 ± 0.039 | 0.988 ± 0.035 | 0.978 ± 0.04 | 0.96 ± 0.055 |
| PUS3 (UniProt Q9BZE2) | 1.01 ± 0.013 | 0.997 ± 0.0053 | 1 ± 0.026 | 1.03 ± 0.054 | 0.978 ± 0.032 | 0.974 ± 0.019 |
| UniProt Q9H7H0 and related entries | 0.947 ± 0.034 | 0.949 ± 0.043 | 0.921 ± 0.062 | 0.949 ± 0.059 | 0.958 ± 0.045 | 0.938 ± 0.054 |
| Q9NPA5 and related entries (UniProt Q9NTW7) | 1.002 ± 0.0087 | 0.975 ± 0.023 | 0.981 ± 0.017 | 0.983 ± 0.027 | 0.97 ± 0.017 | 0.974 ± 0.035 |
| RAB33B (UniProt Q9H082) | 1.04 ± 0.028 | 1 ± 0.025 | 1.03 ± 0.02 | 1.04 ± 0.042 | 1.03 ± 0.047 | 1.02 ± 0.074 |
| UniProt Q9H0C5 and related entries | 0.953 ± 0.036 | 0.87 ± 0.013 | 0.899 ± 0.028 | 0.952 ± 0.019 | 0.961 ± 0.04 | 0.902 ± 0.032 |
| XRN2 (UniProt Q9H0D6) | 0.997 ± 0.029 | 1.01 ± 0.027 | 0.992 ± 0.037 | 1.02 ± 0.04 | 0.995 ± 0.043 | 1.02 ± 0.036 |
| UniProt Q9H074 and related entries | 1 ± 0.057 | 1.01 ± 0.066 | 1.02 ± 0.018 | 0.989 ± 0.044 | 0.9811 ± 0.0093 | 0.952 ± 0.067 |
| TNKS1BP1 (UniProt Q9C0C2) | 0.971 ± 0.023 | 1.02 ± 0.019 | 1.05 ± 0.024 | 1.02 ± 0.091 | 1.02 ± 0.067 | 1.05 ± 0.069 |
| UniProt Q9H8G2 | 1.03 ± 0.036 | 1.04 ± 0.043 | 1.02 ± 0.017 | 1.05 ± 0.013 | 1.006 ± 0.0039 | 1.06 ± 0.045 |
| MOV10 (UniProt Q9HCE1) | 0.952 ± 0.027 | 0.867 ± 0.15 | 0.932 ± 0.09 | 0.938 ± 0.032 | 0.944 ± 0.08 | 0.889 ± 0.12 |
| UniProt Q9H2G9 and related entries | 0.986 ± 0.039 | 0.992 ± 0.027 | 1.01 ± 0.013 | 0.977 ± 0.031 | 0.9649 ± 0.009 | 0.988 ± 0.011 |
| UniProt Q9HBM0 and related entries | 0.9994 ± 0.0068 | 0.9816 ± 0.0096 | 0.994 ± 0.015 | 0.9772 ± 0.0085 | 0.9691 ± 0.0064 | 0.963 ± 0.018 |
| ESF1 (UniProt Q9H501) | 1.07 ± 0.035 | 1.15 ± 0.06 | 1.1 ± 0.016 | 1.11 ± 0.02 | 1.08 ± 0.027 | 1.12 ± 0.029 |
| ANKZF1 (UniProt Q9H8Y5) | 0.995 ± 0.031 | 1.02 ± 0.043 | 0.998 ± 0.01 | 1.01 ± 0.016 | 0.999 ± 0.02 | 1.03 ± 0.058 |
| SPC25 (UniProt Q9HBM1) | 0.974 ± 0.05 | 1.03 ± 0.15 | 1.01 ± 0.099 | 1.04 ± 0.097 | 1.05 ± 0.074 | 1.06 ± 0.087 |
| UniProt Q9HCJ0 and related entries | 1.043 ± 0.0013 | 1.033 ± 0.0035 | 1.01 ± 0.013 | 1.01 ± 0.022 | 1 ± 0.016 | 1.02 ± 0.02 |

Part of the list above, tab-delimited:
Target	NP40-soluble protein abundance (concentration: 1mM)	NP40-soluble protein abundance (concentration: 2mM)	NP40-soluble protein abundance (concentration: 4mM)	NP40-soluble protein abundance (concentration: 6mM)	NP40-soluble protein abundance (concentration: 8mM)	NP40-soluble protein abundance (concentration: 10mM)
RAB18 (UniProt Q9NP72)	0.997 ± 0.033	0.961 ± 0.06	0.977 ± 0.04	0.979 ± 0.03	0.997 ± 0.046	0.947 ± 0.047
EGLN1 (UniProt Q9GZT9)	1.034 ± 0.0081	1.06 ± 0.039	1.04 ± 0.031	1.01 ± 0.012	0.998 ± 0.012	1.01 ± 0.043
UniProt Q9H4L5 and related entries	1.02 ± 0.024	1.01 ± 0.041	0.9904 ± 0.0097	0.9706 ± 0.0096	0.96 ± 0.028	0.953 ± 0.016
FTO (UniProt Q9C0B1)	0.98 ± 0.02	0.942 ± 0.043	0.9778 ± 0.0041	0.955 ± 0.018	0.9727 ± 0.0014	0.936 ± 0.016
UniProt Q9H7H0 and related entries	0.947 ± 0.034	0.949 ± 0.043	0.921 ± 0.062	0.949 ± 0.059	0.958 ± 0.045	0.938 ± 0.054
Q9NPA5 and related entries (UniProt Q9NTW7)	1.002 ± 0.0087	0.975 ± 0.023	0.981 ± 0.017	0.983 ± 0.027	0.97 ± 0.017	0.974 ± 0.035
UniProt Q9H074 and related entries	1 ± 0.057	1.01 ± 0.066	1.02 ± 0.018	0.989 ± 0.044	0.9811 ± 0.0093	0.952 ± 0.067
MOV10 (UniProt Q9HCE1)	0.952 ± 0.027	0.867 ± 0.15	0.932 ± 0.09	0.938 ± 0.032	0.944 ± 0.08	0.889 ± 0.12
UniProt Q9H2G9 and related entries	0.986 ± 0.039	0.992 ± 0.027	1.01 ± 0.013	0.977 ± 0.031	0.9649 ± 0.009	0.988 ± 0.011
